This test deals with HT29 xenograft, nude mice, s.c., tumor weight T/C%. As to the kind of experiment: NCI In Vivo Anticancer Drug Screen. Data for tumor model HT29;CX-1 Human Adenocarcinoma (MER+) (subcutaneous) in NU/NU Swiss (nude) mice. As to conditions: T/C endpoint: optimum tumor weight change, schedule: Q04DX003 (ip), vehicle: water, evaluated on day 34, higher T/C = larger tumour. Here is the method:
The antitumor activity of compounds was measured in mice bearing transplantable tumors. Survival or tumor size were measured and the results are expressed as the measurement made in the treated group (T) divided by the measurement made in the vehicle treated control group (C). The tumor model used in this assay is HT29;CX-1 Human Adenocarcinoma (MER+) (subcutaneous) in NU/NU Swiss (nude) mice

This note sets out measurements from PubChem BioAssay AID202 (DTP/NCI, 2004).

The structures appear in SMILES notation. The list is a part of this screen's results and no random one: it gathers some chemical classes. Other doses and runs of a compound may be missing. T/C is the treated group as % of the vehicle group. Schedule codes are those of the source, taken here to give the interval after Q, in days (D) or hours (H), and the number of doses after X. Some T/C values are marked as having no survivor count here; that says nothing about deaths at the dose.

`CC(=O)OCC12CCC(C)=CC1OC1C(O)C(OC(C)=O)C2(C)C12CO2` (configuration not stated): the T/C runs as follows: (dose: 0.5 mg/kg/injection) 42 % of control [survivor count not shown]; (dose: 2.0 mg/kg/injection) 60 % of control [survivor count not shown].
